Data published in PubChem BioAssay AID485298 (National Center for Advancing Translational Sciences (NCATS), 2010).
In all, about 320,000 compounds went through this assay and about 740 (0.23%) were called active. Inconclusive means that the source gave no clear call. Such entries were picked first, then a sample of the others. The call rests on the fitted dose curve; in most records, active means well fitted activation curve with a large enough effect; inconclusive means small, poorly fitted or top-dose-only effect; inactive means no such curve, though single readings can be large or run the other way. Potencies of inconclusive entries are doubtful fits and often do not repeat.

Test: qHTS Assay for Small Molecule Inhibitors of Mitochondrial Division or Activators of Mitochondrial Fusion; further: nearly all actives have a fitted effect of over 45% in size
Conditions: S. cerevisiae fusion-defective mutant growth rescue, CellTiterGlo 48 h; series mostly up to 46.1 µM
How it was run: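 Luminescent cell viability in 1536-well qHTS format served as the measure of rescued growth in ts fusion-mutant S. cerevisiae cultured on non-fermentable YPEG for 48 hours at 37C.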
Potency means the concentration at half of the fitted maximal effect.

SMILES	Potency
Cc1cccc(Nc2nc(-c3ccc(O)c(O)c3)cs2)n1	inactive
Nc1nc(-c2ccc3c(c2)CCCC3)c(CC(=O)O)s1	inconclusive: 0.501 µM [activator, full curve, poor fit]
CC(=O)c1c(-c2ccccc2)c2cc(Cl)ccc2[nH]c1=O	inconclusive: 8.91 µM [activator, partial curve]
CC1(c2nnc(-c3ccc(F)cc3)o2)CC(c2cccc(Cl)c2)=NO1 (stereo unspecified)	inconclusive: 14.1 µM [activator, single point]
COc1ccc(-n2nc3c(N4CCCC(C(=O)NCc5ccccc5C)C4)nnc(C)c3c2C)cc1 (stereo unspecified)	inactive
COc1ccc(-c2nnc(SCC(=O)c3cccs3)n2-c2ccc(Cl)cc2)cc1	inconclusive: 12.6 µM [activator, single point]
CCC1(O)CC2CN(CCc3c([nH]c4ccccc34)[C@@](C(=O)OC)(c3cc4c(cc3OC)N(C)C3[C@]45CCN4CC=C[C@@](CC)([C@@H](OC(C)=O)[C@]3(O)C(=O)OC)[C@H]45)C2)C1 (stereo partly specified)	inconclusive: 25.9 µM [activator, partial curve, poor fit]
COc1cccc(C2CC(c3cccs3)=NN2C(=O)c2ccco2)c1O (stereo unspecified)	inconclusive: 12.6 µM [activator, partial curve]
Cc1cc(/C=C(\C#N)C(=O)NC2CCCCCC2)c(C)[nH]1	inconclusive: 11.2 µM [activator, partial curve]
CCOc1ccc(CN(C(=O)c2cc3ccccc3oc2=O)C2CC2)cc1	inconclusive: 11.2 µM [activator, partial curve]
CCc1ccc(/C=N/n2c(COc3ccccc3)n[nH]c2=S)cc1	inactive
O=c1oc(Cl)c(Cl)c2ccccc12	inconclusive: 1.46 µM [activator, partial curve]
CCOC(=O)c1sc(NC(=O)C2=COCCO2)c(C#N)c1C	inconclusive: 20 µM [activator, partial curve]
O=C(NCCc1csc(-c2cccc(F)c2)n1)c1ccco1	inconclusive: 10 µM [activator, partial curve]
CN1C(=O)C(c2nnc(Nc3cccc4ccccc34)s2)C2CC1(C)Oc1ccccc12 (stereo unspecified)	inconclusive: 31.6 µM [activator, single point]
COC(=O)C1(CC2CC(c3ccc(Cl)cc3)=NO2)CCN(C(=O)OC(C)(C)C)CC1 (stereo unspecified)	inconclusive: 20 µM [activator, single point]
COc1cc2c(cc1OC)CN(S(=O)(=O)c1cccs1)CC2	inconclusive: 12.6 µM [activator, partial curve]
c1ccc(C(c2ccccc2)N2CCN(Cc3nnnn3C3CCCCC3)CC2)cc1	inconclusive: 22.4 µM [activator, partial curve]
N#CCCN1CCN(C(=S)c2ccc(-c3ccc(Cl)c(Cl)c3)o2)CC1	inactive
N#Cc1nc(-c2cccs2)oc1N1CCN(Cc2ccccc2)CC1	inconclusive: 35.5 µM [activator, single point]
O=[N+]([O-])c1cccc(-c2nc3ccccc3s/c2=N/O)c1	inconclusive: 1.41 µM [activator, full curve]

Given as comma-separated lines: entries from further up
SMILES,Potency
CCOc1ccc(CN(C(=O)c2cc3ccccc3oc2=O)C2CC2)cc1,"inconclusive: 11.2 µM [activator, partial curve]"
CCc1ccc(/C=N/n2c(COc3ccccc3)n[nH]c2=S)cc1,inactive

The list goes on.

SMILES	Potency
Cc1ccc2cc(CN(Cc3ccco3)C(=O)c3ccco3)c3nnnn3c2c1	inactive
Cc1cc(Nc2ccccc2)n(C(=O)c2ccc(N)cc2)n1	inconclusive: 17.8 µM [activator, partial curve]
C=C[C@]1(C)C=C2CCC3[C@](C)(CCC[C@@]3(C)C(=O)O)C2CC1 (stereo partly specified)	inconclusive: 3.55 µM [activator, full curve]
CC1CCCN(c2ccc(C(=O)NCc3ccc4c(c3)OCO4)cc2[N+](=O)[O-])C1 (stereo unspecified)	inactive
COc1ccc(/C=N/NC(=O)c2cccc(Br)c2)cc1COc1ccccn1	inactive
O=S(=O)(NCC(c1ccco1)N1CCN(c2ccc(F)cc2)CC1)c1ccc2c(c1)OCCO2 (stereo unspecified)	inconclusive: 14.1 µM [activator, single point]
CCOC(=O)c1ccc(NC(=O)c2nc[nH]c2C(=O)N[C@@H](CC(C)C)C(=O)OC(C)(C)C)cc1	inactive
CN1CC(=O)N(CC(=O)N2CCC(Cc3ccccc3)CC2)C1=O	inconclusive: 3.16 µM [activator, single point]
COc1ccc(-c2nnn(CC(=O)N(CCCO)C(C(=O)NC3CCCC3)c3ccncc3)n2)cc1 (stereo unspecified)	inconclusive: 31.6 µM [activator, single point]
COc1ccc(/C(C)=N/OCC(=O)Nc2nc3ccccc3s2)cc1	inconclusive: 20 µM [activator, single point]
O=C(NC(=S)NCCc1ccccc1)c1ccccc1F	inactive
COc1cccc(/C(C)=N/Nc2ccc(S(=O)(=O)N3CCCCC3)cn2)c1	inconclusive: 35.5 µM [activator, single point]
CCOc1ccc(OCC)c(NS(=O)(=O)c2cccc3nsnc23)c1	inconclusive: 12.6 µM [activator, partial curve]
CCOC(=O)c1c(NC(=O)CN2CCN(C(=O)c3ccco3)CC2)sc2c1CCCC2	inconclusive: 15.8 µM [activator, single point]
CCCCOc1ccc(C(=O)NCC2(c3ccccc3)CCOCC2)cc1	inconclusive: 22.4 µM [activator, single point]
Cc1cccc(NC(=O)CCNS(=O)(=O)c2cccc3nonc23)c1C	inconclusive: 12.6 µM [activator, partial curve]
Nc1ccc(N=Nc2ccccc2)c2ccccc12	inconclusive: 14.1 µM [activator, single point]
CC1CCc2nc3ccc(S(=O)(=O)N4CCC(C(=O)NCc5ccccc5Cl)CC4)cc3c(C(=O)O)c2C1 (stereo unspecified)	inconclusive: 5.01 µM [activator, full curve]
CCC(=NCCc1c(C)[nH]c2ccccc12)C1=C(O)CC(c2ccccc2)CC1=O (stereo unspecified)	inconclusive: 35.5 µM [activator, single point]
COc1ccc(NC(=O)C(C)SCc2ccccc2)cc1 (stereo unspecified)	inconclusive: 10 µM [activator, partial curve, poor fit]
